This note sets out measurements from patent US7550468B2, “Theophylline and 3-isobutyl-1 methylxanthine based N-7 substituted derivatives displaying inhibitory activities on PDE-5 phospodiesterase” (priority 2000, dated 2009).

The structures given here were assigned with low confidence; some may be wrong.

For the experiment, the target named is PDE5 (human platelet) (Homo sapiens, UniProt O76074). Description: PDE5 (human platelet) inhibition. It counts as biochemical. Particulars: read-out: PDE5 (human platelet) IC50.
One may read the IC50 as the concentration needed to halve the response being measured. With `CCOc1ccc(C(N)=O)cc1CNCCn1cnc2c1c(=O)n(C)c(=O)n2CC(C)C`, the IC50 stood at 0.6 nM.
For `CC(C)Cn1c(=O)n(C)c(=O)c2c1ncn2CCNCc1cc(C(N)=O)ccc1O`, the IC50 was found to be 0.6 nM.
Regarding `CCOc1ccccc1CNCCn1cnc2c1c(=O)n(C)c(=O)n2CC(C)C`, the 50% inhibitory concentration (IC50) was determined as 0.3 nM.
